The nature of this series: soluble on expression in E. coli; label from the status in PepcDB or PDB records.

Consider 19 sequences from the DeepSol protein solubility set.

For “GDMENIPWYPKKISDLDKCANRVLMYGSDLDADHPGFKDNVYRKRRKYFADLAMNYKHGDPIPEIEFTEEEIKTWGTVYRELNKLYPTHACREYLKNLPLLTKYCGYREDNIPQLEDVSRFLKERTGFTIRPVAGYLSPRDFLAGLAFRVFHCTQYVRHSSDPLYTPEPDTCHELLGHVPLLAEPSFAQFSQEIGLASLGASDEAVQKLATCYFFTVEFGLCKQEGQLRVYGAGLLSSISELKHSLSGSAKVKPFDPKVTCKQECLITTFQEVYFVSESFEEAKEKMREFAKTIKRPFGVKYNPYTQSVQILKD”, the “soluble on expression in E. coli” value is reported as “soluble”. With “MGKDYYKVLGISKGATDDEIKKAYRKMALKYHPDKNKEAGAENKFKEIAEAYDVLSDDKKKKIYDQFGEEGLKEGGPGAGGGGGGGMHYEFRGDPMNIFSSFFGGSDPFGAGGPGMFDLGGGAGGPNMFFMNQGGMDDGMFGGMHQGGRRGHARQDPAVLHDLSVSLEDVLKGTTKKMKITRKVMTDNAQRLEDKVLTVTIKPGWKSGTKITFPKEGDQHPNRTPADIVFVIKDKPHPKFKREGSDIKRVEKISLKSALTGLDIMIPTLDGADYRLQLNDVIKPGTTRRLTGKGLPNPKSPSHRGDLIIEFDVEFPSQLNPTQREVILRNF” the entry was “not soluble”; with “EGVVEAVACFAYTGRTAQELSFRRGDVLRLHERASSDWWRGEHNGMRGLIPHKYITLPAGTEKQVVGAG”, “soluble”. The same measure for “ALWQFRSLIKCAIPGSHPLLDFNNYGCYCGLGGSGTPVDELDRCCETHDCCYRDAKNLDSCKFLVDNPYTESYSYSCSNTEITCNSKNNACEAFICNCDRNAAICFSKAPYNKEHKNLDTKKYCKGESDKC”: “soluble”. With “MASFDEAPPGNPKAGEKIFRTKCAQCHTVEKGAGHKQGPNLNGLFGRQSGTTPGYSYSAANKSMAVNWEEKTLYDYLLNPKKYIPGTKMVFPGLKKPQDRADLIAYLKEGTA” the entry was “soluble”. With “PGSSVSGTFGCLGGRLTIPGTGVSLLVPNGAIPQGKFYDLYLRINKTESTLPLSEGSQTVLSPSVTCGPTGLLLCRPVVLTVPHCAEVIAGDWIFQLKTQAHQGHWEEVVTLDEETLNTPCYCQLEAKSCHILLDQLGTYVFTGESYSRSAVKRLQLAIFAPALCTSLEYSLRVYCLEDTPAALKEVLELERTLGGYLVEEPKPLLFKDSYHNLRLSLHDIPHAHWRSKLLAKYQEIPFYHVWNGSQKALHCTFTLERHSLASTEFTCKVCVRQVEGEGQIFQLHTTLAETPAGSLDALCSAPGNAATTQLGPYAFKIPLSIRQKICNSLDAPNSRGNDWRLLAQKLSMDRYLNYFATKASPTGVILDLWEARQQDDGDLNSLASALEEMGKSEMLVAMTTDGDC”, the “soluble on expression in E. coli” value is “soluble”.

Regarding “LTQELGTAFFQQQQLPAAMADTFLEHLCLLDIDSEPVAARSTSIIATIGPASRSVERLKEMIKAGMNIARLNFSHGSHEYHAESIANVREAVESFAGSPLSYRPVAIALDTKGPEIRTGILQGGPESEVELVKGSQVLVTVDPAFRTRGNANTVWVDYPNIVRVVPVGGRIYIDDGLISLVVQKIGPEGLVTQVENGGVLGSRKGVNLPGAQVDLPGLSEQDVRDLRFGVEHGVDIVFASFVRKASDVAAVRAALGPEGHGIKIISKIENHEGVKRFDEILEVSDGIMVARGDLGIEIPAEKVFLAQKMMIGRCNLAGKPVVCATQMLESMITKPRPMRAETSDVANAVLDGADCIMLSGETAKGNFPVEAVKMQHAIAREAEAAVYHRQLFEELRRAAPLSRDPTEVTAIGAVEAAFKCCAAAIIVLTTTGRSAQLLSRYRPRAAVIAVTRSAQAARQVHLCRGVFPLLYREPPEAIWADDVDRRVQFGIESGKLRGFLRVGDLVIVVTGWRPGSGYTNIMRVLSIS”, the “soluble on expression in E. coli” value is recorded as “soluble”. The same measure for “MSTPQSEPGSEPGSPGENENSMETQYSQGSFPEVAVEPEPEPEPEPEPEPEPEPEPEPEPEPKPKPEVEPVPQPEPEPEYQPEPEPEPEVEPEPEPEPVPEPEPEPEPEPEPVVEKEEEVVVESPPREQEPEKSGKSKPSSPIPDAPTMEDIAPRELESLNFSETSGTSDQQADRIMQNNENERVEEKKQMSPTPSQPQHKTPQRSGIRPPTAILRQPKPIPASLPRPATATPSSQRAISTPRQTASTAPSPRPISKMSRERSDVQKSTSTRSIDNVGRMTPKVNAKFVNVKSKVGSVTNHKAGGGNVEIFSEKRLYNAQSKVGSLKNATHVAGGGNVQIENRKLDFSAASPKVGSKTNYQPAKSDVKIVSEKLTWQAKSKVGSMDNAAHKPAGGNVQILSQKLNWKAESKVGSKDNMNHRPGGGNVQIFDEKIRYVSTDSSRNHSTLDISSL”: “soluble”; for “MGSDKIHHHHHHMIKKINMEVNTTENKTLEQDYRDLAGLLSNIVDSLPIYFFVKDTGDNFRYVYSSPLMNQLYGRYHNDVVGKTDFDLFLDPVVAQSFRDMDEEVVKTGKMQRFVEQMIDPKGILRTMDTMKLLAPREDKPPYLVGISWDITKQRQVEEELHSYNKRLALACQAGKIYPWLWDLVNGTAELSLEENGQIKHVQITHASFTEKIHPDYRKVYENITTAFMRGEIDSMRFSFPCRYFSDEYVWLEKIGEVYEADPDGKPIRSIGILRDMTVDKRHEADVQAKRLAEESDRMKSAFIANMSHEIRTPLNAIVGFSTLLAESDDEEEKKEYLRIIESSNEFLLQLIGDILDISKIESGKMEFIYTTLRLSEIFAPQQQAFALRVAPGVKVIFESDGNDYCIVSEKTRLTQVLTNFLSNAVKFTSSGSIRFGYRLTDDGIYVYVTDTGMGISKESQASIFNRFVKLNSFKQGTGLGLSICKTIIEKLKGKIGVESEEGKGSTFWFTIPCQPMKVK”: “not soluble”. The same measure for “MSLAKTYDYLFKLLLIGDSGVGKTCLLFRFSEDAFNTTFISTIGIDFKIRTIELDGKKIKLQIWDTAGQERFRTITTAYYRGAMGIMLVYDITNEKSFDNIKNWIRNIEEHASSDVERMILGNKCDMNDKRQVSKERGEKLAIDYGIKFLETSAKSSANVEEAFFTLARDIMTKLNRKMNDSNSAGAGGPVKITENRSKKTSFFRCSLLEGHHHHHH”: “not soluble”.

For the sequence “MLHPYRMEGYIIPPQQTEEMFETEIYRPPMEYQYIIDDSQNDHSWDYNTHHIHPVDFENLPESHFTELQSVQSLHAASVHRFPDVESSHFMDPGLGSHHIPLTNPQMTYLPRTSVCYPHNVQPSPLQRSSDEEDPSSRSPPLEVSDEECMRDHISSTTGGEHGNKKKIRLYQFLLDLLRNGDMKDSIWWVDREKGTFQFSSKHKEVLANRWGIQKGNRKR”, the “soluble on expression in E. coli” value is listed as “not soluble”. The same measure for “MGSSHHHHHHSSGRENLYFQGHERLTLDTRLRQALERNELVLHYQPIVELASGRIVGGEALVRWEDPERGLVMPSAFIPAAEDTGLIVALSDWVLEACCTQLRAWQQQGRAADDLTLSVNISTRQFEGEHLTRAVDRALARSGLRPDCLELEITENVMLVMTDEVRTCLDALRARGVRLALDDFGTGYSSLSYLSQLPFHGLKIDQSFVRKIPAHPSETQIVTTILALARGLGMEVVAEGIETAQQYAFLRDRGCEFGQGNLMSTPQAADAFASLLDRQKASGQRPVHGHETAP”: “soluble”; for “MGSDKIHHHHHHMSATKLTRREQRARAQHFIDTLEGTAFPNSKRIYITGTHPGVRVPMREIQLSPTLIGGSKEQPQYEENEAIPVYDTSGPYGDPQIAINVQQGLAKLRQPWIDARGDTEELTVRSSDYTKARLADDGLDELRFSGVLTPKRAKAGRRVTQLHYARQGIITPEMEFIAIRENMGRERIRSEVLRHQHPGMSFGAHLPENITAEFVRDEVAAGRAIIPANINHPESEPMIIGRNFLVKVNANIGNSAVTSSIEEEVEKLVWSTRWGADTVMDLSTGRYIHETREWILRNSPVPIGTVPIYQALEKVNGIAEDLTWEAFRDTLLEQAEQGVDYFTIHAGVLLRYVPMTAKRLTGIVSRGGSIMAKWCLSHHQENFLYQHFREICEICAAYDVSLSLGDGLRPGSIQDANDEAQFAELHTLGELTKIAWEYDVQVMIEGPGHVPMQMIRRNMTEELEHCHEAPFYTLGPLTTDIAPGYDHFTSGIGAAMIGWFGCAMLCYVTPKEHLGLPNKEDVKQGLITYKIAAHAADLAKGHPGAQIRDNAMSKARFEFRWEDQFNLALDPFTARAYHDETLPQESGKVAHFCSMCGPKFCSMKISQEVRDYAATQTIEMGMADMSENFRARGGEIYLRKEEA”: “not soluble”; for “GNSATSADEQPHIGNYRLLKTIGKGNFAKVKLARHILTGKEVAVKIIDKTQLNSSSLQKLFREVRIMKVLNHPNIVKLFEVIETEKTLYLVMEYASGGEVFDYLVAHGRMKEKEARAKFRQIVSAVQYCHQKFIVHRDLKAENLLLDADMNIKIADFGFSNEFTFGNKLDTFCGSPPYAAPELFQGKKYDGPEVDVWSLGVILYTLVSGSLPFDGQNLKELRERVLRGKYRIPFYMSTDCENLLKKFLILNPSKRGTLEQIMKDRWMNVGHEDDELKPYVAPLPDYKDPRRTELMVSMGYTREEIQDSLVGQRYNEVMATYLLLGYK”: “soluble”. The same measure for “MSSYLDDLRIDLAASPASGGSASIAVGSFNIPYEVTRRLKGVGADADTTLTSCASWTQLQKLYEQYGDEPIKKHFETDSERGQRYSVKVSLGSKDENFLFLDYSKSHINDEIKCALLRLAEERGIRQFVQSVFRGERVNTTENRPVLHIALRNRSNRPIYVDGKDVMPAVNKVLDQMRSFSEKVRTGEWKGHTGKAIRHVVNIGIGGSDLGPVMATEALKPFSQRDLSLHFVSNVDGTHIAEVLKSIDIEATLFIVASKTFTTQETITNALSARRALLDYLRSRGIDEKGSVAKHFVALSTNNQKVKEFGIDEENMFQFWDWVGGRYSMWSAIGLPIMISIGYENFVELLTGAHVIDEHFANAPPEQNVPLLLALVGVWYINFFGAVTHAILPYDQYLWRLPAYLQQLDMESNGKYVTRSGKTVSTLTGPIIFGEAGTNGQHAFYQLIHQGTNLIPCDFIGAIQSQNKIGDHHKIFMSNFFAQTEALMIGKSPSEVRRELEAAGERSAEKINALLPHKTFIGGRPSNTLLIKSLTPRALGAIIAMYEHKVLVQGAIWGIDSYDQWGVELGKVLAKSILPQLRPGMRVNNHDSSTNGLINMFNELSHLHHHHHH”: “soluble”; for “GSDGEPLVGGDTDDQLQGGSGADRLDGGAGDDILDGGAGRDRLSGGAGADTFVFSAREDSYRTDTAVFNDLILDFEASEDRIDLSALGFSGLGDGYGGTLLLKTNAEGTRTYLKSFEADAEGRRFEVALDGDHTGDLSAANVVFAATGTTTELEVLGDSGTQAGAIV”: “soluble”; for “FEKFRWFISSEGFLVIGGKDATTNEIVVKKHMDENDIYCHADIWGAPHVIIKNGRNASEKTIREACQFAVAMSRAWSEGLASADAYWVYPEQVSKQAPAGEYLPK”: “not soluble”. With “RFTWSMKTTSSMDPSDMMREIRKVLDANNCDYEQRERFLLFCVHGDGHAENLVQWEMEVCKLPRLSLNGVRFKRISGTSIAFKNIASKIANELKL” the entry was “soluble”; with “MSLKGVSIALTCRAFEVSETCYRYSPKIDDENEQIADLLLGLVKAKKTWGFGLCFLYMRNVQGHGWNHKRVYRIYRELELNLRIKPRKRLKRDKPEALTVPEAANEVWSMDFMADRLGDGRQFRLLNVLDDFNREGVGIEVDFSLPAERVVRALNQIIEWRGAPKTIRVDNGPEYISGTLMEWAEHQGIALAHIQPRKPQQNAYVERYNRTVRHEWLDLHIFETIDQVQQIATEWLWSYNNERPNMGNGGMTPAQKLRMAAEGHHHHHH”, “not soluble”.
